Taken from: PubChem BioAssay AID652259 (Drosophila RNAi Screening Center, 2013)

Purpose: 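Knock-downs that push a Wingless-driven reporter up or down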 (primary screen)
Cells: Drosophila clone 8 imaginal disc epithelial cells
Reagent: long dsRNA against Drosophila genes
Challenge: pathway stimulated by co-transfected Wingless expression plasmid
Measured: 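Firefly luciferase from a tcf-site Wingless reporter, measured alongside co-transfected Renilla luciferase that tracks transfection; pathway stimulated by a Wingless plasmid; the firefly-to-Renilla ratio is not deposited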
Direction: firefly reporter light: higher = more Wg reporter light, before normalisation; Renilla control light: higher = more transfected or surviving cells
Hit rule: 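Strong candidates differ from their plate mean by at least two out of four per-plate statistical tests; weak candidates meet just one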
Calls: active = candidate regulator (raises or lowers reporter); inactive = not a candidate
The deposit covers about 22,000 reagents; this is an unselected part of those that have a named target and a result. Over the whole deposit, 233 (1.1%) got an active call. 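Light values are raw, unnormalised plate reads; the ratio scores behind the reporter calls were not deposited.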 Entries without a mark were called inactive. Reagents against one gene are numbered here. Not stated in the record: the amount of reagent, the time to read-out, the dose of the treatment.

predicted target | reagent no. | reporter change call, replicate 1 | firefly reporter light, replicate 1 | firefly reporter light, replicate 2 | Renilla control light, replicate 1 | Renilla control light, replicate 2
CG5290 (GeneID 39998) | 1 | – | 5452 | – | 1798 | –
Rpe (GeneID 35692) | 1 | – | 8636 | – | 1485 | –
gsb-n (GeneID 38004) | 1 | – | 24050 | – | 11189 | –
gsb-n (GeneID 38004) | 2 | – | 3523 | 5188 | 713 | 2077
CG7295 (GeneID 33365) | 1 | – | 1994 | 6697 | 801 | 2357
CG12682 (GeneID 31415) | 1 | – | 15899 | – | 7868 | –
CG18596 (GeneID 42622) | 1 | – | 2432 | 5205 | 1413 | 1785
Ir84a (GeneID 40891) | 1 | – | 7434 | – | 2792 | –
CG14246 (GeneID 3772140) | 1 | – | 12712 | – | 6551 | –
CG32365 (GeneID 38876) | 1 | – | 864 | 6582 | 844 | 2761
CG32365 (GeneID 38876) | 2 | – | 1558 | 5840 | 154 | 368
CG32365 (GeneID 38876) | 3 | – | 1121 | 5593 | 440 | 957
shams (GeneID 43008) | 1 | – | 17693 | – | 13211 | –
per (GeneID 31251) | 1 | – | 13619 | – | 9463 | –
Seipin (GeneID 31245) | 1 | – | 12640 | – | 12629 | –
pb (GeneID 40826) | 1 | – | 2564 | – | 1557 | –
pb (GeneID 40826) | 2 | Wg reporter activity raised (active) | 25349 | – | 2364 | –
CG4892 (GeneID 34949) | 1 | – | 2918 | 7667 | 1258 | 3208
sds22 (GeneID 42091) | 1 | – | 12160 | – | 3158 | –
CR11023 (GeneID 33155) | 1 | – | 3539 | 8128 | 969 | 2939
Hus1-like (GeneID 40598) | 1 | – | 19397 | – | 5885 | –
CG10700 (GeneID 35183) | 1 | – | 2177 | 8086 | 624 | 3208
Mob3 (GeneID 34372) | 1 | – | 3200 | 4779 | 1044 | 2147
LeuRS-m (GeneID 38581) | 1 | – | 4154 | – | 1479 | –
CG18234 (GeneID 40024) | 1 | – | 8064 | – | 3147 | –

6 entries from above, showing only “Renilla control light, replicate 1”.
CG4892 (GeneID 34949) = 1258
sds22 (GeneID 42091) = 3158
CR11023 (GeneID 33155) = 969
Hus1-like (GeneID 40598) = 5885
CG10700 (GeneID 35183) = 624
Mob3 (GeneID 34372) = 1044

The results go on.
predicted target | reagent no. | reporter change call, replicate 1 | firefly reporter light, replicate 1 | firefly reporter light, replicate 2 | Renilla control light, replicate 1 | Renilla control light, replicate 2
CG10588 (GeneID 40316) | 1 | – | 13830 | – | 4976 | –
CG15914 (GeneID 32542) | 1 | – | 24450 | – | 8977 | –
Ccp84Aa (GeneID 40825) | 1 | – | 16848 | – | 4450 | –
CG8245 (GeneID 35503) | 1 | – | 3684 | 7868 | 837 | 2957
Dgk (GeneID 35738) | 1 | – | 16752 | – | 6032 | –
Dgk (GeneID 35738) | 2 | – | 19072 | – | 7571 | –
Dgk (GeneID 35738) | 3 | – | 3904 | 7371 | 1185 | 3430
Dgk (GeneID 35738) | 4 | – | 4659 | 8112 | 86 | 4758
Dgk (GeneID 35738) | 5 | – | 1.02e6 | 9.52e5 | 1.94e5 | 1.59e5
SWIP (GeneID 32594) | 1 | – | 18268 | – | 7698 | –
CG5815 (GeneID 43266) | 1 | – | 10468 | – | 3642 | –
CG30083 (GeneID 246444) | 1 | – | 21021 | – | 17907 | –
CG12483 (GeneID 50161) | 1 | – | 7778 | – | 2839 | –
spg (GeneID 43404) | 1 | – | 6691 | – | 3452 | –
spg (GeneID 43404) | 2 | – | 9190 | – | 5243 | –
CG33998 (GeneID 3885594) | 1 | – | 15520 | – | 11641 | –
Cdc16 (GeneID 42753) | 1 | – | 14135 | – | 9465 | –
unc80 (GeneID 43324) | 1 | – | 6661 | – | 2432 | –
blo (GeneID 35866) | 1 | – | 6230 | – | 1938 | –
Flad2 (GeneID 34759) | 1 | – | 2536 | 7861 | 1027 | 2909
l(2)dtl (GeneID 46326) | 1 | – | 20131 | – | 5356 | –
Bcat (GeneID 32297) | 1 | – | 23430 | – | 11396 | –
kek2 (GeneID 34582) | 1 | – | 2299 | 9572 | 613 | 4237
CG1847 (GeneID 32144) | 1 | – | 2616 | 4612 | 859 | 1776
